{"sequences": {"note": "The chains behind the UniProt entries cited, without tags or fusion partners. Residues count along the entry.", "UniProt P07477, 24-247": "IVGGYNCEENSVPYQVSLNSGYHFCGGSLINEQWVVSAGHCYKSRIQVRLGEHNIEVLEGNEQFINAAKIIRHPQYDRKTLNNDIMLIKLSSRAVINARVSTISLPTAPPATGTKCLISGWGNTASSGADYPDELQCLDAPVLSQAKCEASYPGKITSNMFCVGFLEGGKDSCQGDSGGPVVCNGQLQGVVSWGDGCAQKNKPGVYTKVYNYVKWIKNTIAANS"}, "source": "patent US20120101230A1", "about": "“HIGH-DENSITY POLYMER SURFACE COATING TO IMMOBILIZE CHEMICAL OR BIOLOGICAL MOLECULES” (priority 2009, published 2012)", "key": {"[1]": {"target": "T1, recombinant human trypsin (Homo sapiens, UniProt P07477)", "T1 construct": "purchased Polymum Lot#H149L091.1", "assay": "Small molecule binding to trypsin-immobilized surface, PWV shift", "protocol": "Trypsin was tested to determine what other proteins could be successfully immobilized on high-density polymer surfaces. Like above, high-density polymer surfaces were activated by adding 0.34 M EDC/10 mM NHS in water for 10 min, followed by removing the solution. 50 μg/ml trypsin in non-amine containing buffer was added to the wells, and was incubated for up to around 700 min, followed by a wash first with acetic buffer, then PBS. The trypsin was recombinant human protein from Polymum Lot#H149L091.1. The results of trypsin binding over time, as a function of delta PWV, are shown in FIG. 14, as well as an NHS control. 90% of the protein was immobilized within less than 2 hr. Benzamidine was then added for binding to the immobilized trypsin by adding benzamidine at a final concentration of 67 μM in PBS, pH 7.4. Benzamidine has a molecular weight of 120.15, and an expected delta PWV or PWV shift of 36 pm.\n(§1) Antipain was then added for binding to the low COOH density surfaces. 49.2, 12.3, 3.1, and 1 μM antipain dihydrochloride in PBS was prepared from a microbial source and was added to the 3.8 nm delta PWV shift from trypsin immobilization. 49.2 μM antipain was also added to no trypsin control wells (N=4). […] The theoretical shift of antipain of 1:1 binding on 3.8 nm delta PWV shift trypsin surface is […]. The control, 49.2 μM antipain in a well with no trypsin immobilization, had […] bulk or NSB PWV shift.\n(§2) Leupeptin was also added for binding to the low COOH density surfaces. 88, 22, 5.5, and 0 μM leupeptin dihydrochloride solutions in PBS were prepared and were added to the 3.8 nm delta PWV shift trypsin immobilization surfaces. 88 μM leupeptin was also added to no trypsin control wells (N=2). […] The theoretical shift of leupeptin of 1:1 binding on 3.8 nm delta PWV trypsin is […]. The control 88 μM leupeptin with no trypsin immobilization had 12 nm bulk or NSB shift."}, "[2]": {"assay": "Bulk or NSB PWV shift in no trypsin control wells", "conditions": "49.2 μM antipain, well with no trypsin immobilization", "protocol": "as §1, §2"}}, "note": "Counter-ions that a name gives are not always drawn. For at least one compound, name, drawing or mass did not settle the structure. *1 amine or outer side, *2 acyl side, *3 side chain or, on linkers, in order; H or OH if unused. Where a SMILES comes first, the peptide text is derived from it. CO = O=C([*:1])[*:2]", "data": [{"smiles": "CC(C)[C@H](NC(=O)[C@H](CCCNC(=N)N)NC(=O)N[C@@H](Cc1ccccc1)C(=O)O)C(=O)N[C@H](C=O)CCCNC(=N)N", "note": "[antipain, antipain dihydrochloride] ({Phe-CO}-Arg-Val-Arg-aldehyde)", "values": [{"measurement": "binding to immobilized trypsin (titration)", "setting": "[1]; 3.8 nm delta PWV trypsin on low COOH density surface", "value": "Titration of antipain was observed"}, {"measurement": "binding to immobilized trypsin", "setting": "[1]; 7.2 nm delta PWV trypsin on high COOH density surface", "value": "No positive result was observed"}, {"measurement": "theoretical shift of 1:1 binding", "setting": "[1]; on 3.8 nm delta PWV shift trypsin surface", "value": 95, "unit": "nm"}, {"measurement": "bulk or NSB PWV shift", "setting": "[2]", "value": 14, "unit": "nm"}]}]}
